# This is one part of the list. Shown are side measurements of this screen, not its main read-out; they come without a call. Most of these compounds were active or inconclusive in the main read-out, so they are no random draw. Words in brackets tell the shape of the fitted curve; partial curves, single points and poor fits give uncertain potencies.
# Assay: qHTS Assay to Find Inhibitors of Chronic Active B-Cell Receptor Signaling
# Conditions: ABC-DLBCL IkBa-CBG/CBR reporter, luminescence ratio (green luciferase fused to IkBa over red control in TMD8 lymphoma cells), 4 h
# How it was run: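 Cell line TMD8 (human ABC DLBCL), stably expressing tet-inducible CBG68-IkBa fusion and CBR; IMDM/0.5% FBS; cpd up to 46 uM; dox induction, 4 h, 37C/5% CO2; dual luminescence; green/red ratio; MG132 control.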
# [1] = measured here: CBR red luminescence, cell number
# [2] = measured here: IkBa-CBG green luminescence
SMILES,AC50 [1],AC50 [2]
COc1ccc2c(c1OC)C(=O)OC2C1c2cc3c(cc2CCN1C)OCO3 (centres undefined),"5.01 µM [rising, partial curve]",–
Cc1ccc(-c2cc(C(=O)N3CCC4(CC3)OCCO4)no2)cc1,"7.94 µM [rising, partial curve, poor fit]",–
FC(F)(F)c1ccc2c(c1)nnn2C1CCN(Cc2nnnn2Cc2ccccc2)CC1,"20 µM [falling, single point]",–
CCCCCCCCCOc1ccc2[nH]cc(CCN)c2c1,"5.62 µM [rising, single point]",–
CCN(CC)C(=O)c1ccc(NC(=O)Nc2ccccc2F)cc1,"20 µM [falling, single point]",–
COC(=O)c1ccc(NC(=O)CSc2nc3ccc(N4C(=O)C5C6C=CC(C6)C5C4=O)cc3s2)cc1 (centres undefined),"14.6 µM [falling, partial curve, poor fit]","16.4 µM [rising, partial curve, poor fit]"
CCNc1cc(N2CCNCC2)ccc1[N+](=O)[O-],"6.31 µM [rising, full curve, poor fit]","14.1 µM [falling, partial curve, poor fit]"
Cc1ccccc1-n1c(O)c(/C=N/NC(=O)c2ccccc2O)c(=O)[nH]c1=S,"2.82 µM [falling, full curve]",–
C[C@H]1CCCC(=O)CCCCCc2cc(O)cc(O)c2C(=O)O1,"8.91 µM [falling, partial curve]",–
CC(C)OP(=O)(OC(C)C)C(Nc1ccccc1)c1ccccc1C(F)(F)F (centres undefined),"18.4 µM [falling, partial curve]",–
O=c1[nH]c(=S)n(C2CC2)c(O)c1C=NCCc1ccccc1,"2 µM [rising, partial curve, poor fit]",–
O=S(=O)(CCSc1ccc(C(F)(F)F)cn1)c1ccc(Cl)cc1,"11.2 µM [falling, partial curve, poor fit]",–
CNC(=O)Oc1ccc(-c2cn3cc(Cl)ccc3n2)cc1,"16.4 µM [falling, partial curve]",–
O=C(CN1CCOCC1)c1ccc(Br)cc1,"7.08 µM [falling, partial curve, poor fit]",–
CSc1nc(N)c(N=Nc2ccc([As](=O)(O)O)cc2)c(=O)[nH]1,"12.6 µM [falling, partial curve]",–
Cn1c(O)c(C(=Nc2ccccc2)SCc2ccc(Cl)cc2)c(=O)n(C)c1=O,"4.47 µM [falling, full curve]",–
O=C1NCCN2CCCC12 (centres undefined),"7.08 µM [falling, full curve]",–
CCCCc1ncc(CN2CCCC(C(=O)c3ccc(SC)cc3)C2)[nH]1 (centres undefined),"11.2 µM [falling, partial curve, poor fit]",–
O=c1c2ccccc2nc(Cc2ccccc2)n1-c1ccccc1O,"3.55 µM [rising, single point]",–
Cn1c(O)c(/C=N/c2ncccn2)c(=O)n(C)c1=O,"6.51 µM [rising, single point]",–
Cn1cccc1/C=C1/C(=O)NC(=O)N(Cc2ccc(F)cc2)C1=O,"35.5 µM [rising, single point]","28.2 µM [falling, single point]"

SMILES,AC50 [1],AC50 [2]
COc1ccc(/C=C2/SC(=S)N(c3ccc(S(=O)(=O)Nc4nccs4)cc3)C2=O)cc1,"11.2 µM [falling, single point]",–
O=c1[nH]c(=O)n(CCc2ccccc2)c(O)c1C=NCCCn1ccnc1,"0.00517 µM [falling, full curve, poor fit]",–
O=C(Cc1c(O)c2ccccc2oc1=O)c1ccc(F)cc1,"0.0731 µM [rising, full curve, poor fit]",–
COc1cc(O)cc2c1C(=O)OC(C)CCCC(=O)CCC/C=C\2 (centres undefined),"14.1 µM [falling, partial curve, poor fit]",–
CCCCn1c(N)c(C(=O)NCCN2CCOCC2)c2nc3ccccc3nc21,"25.1 µM [falling, single point]",–
CN1C(=O)N(C)C(=O)C2(Cc3ccccc3N3CCCC32)C1=O (centres undefined),"5.62 µM [falling, single point]",–
CCCc1c(C)nc(-c2ccc(C)cc2)nc1OC(=O)N(C)C,"11.2 µM [rising, single point]",–
O=C(C1CCCN(S(=O)(=O)c2cccc3nsnc23)C1)N1CCC2(CC1)OCCO2 (centres undefined),"0.206 µM [rising, full curve, poor fit]",–
COc1ccc(OC)c(N=Cc2c(O)n(Cc3ccccc3)c(=S)[nH]c2=O)c1,"0.251 µM [falling, full curve, poor fit]",–
Cc1cccc(-n2c(C)nc3ccccc3c2=O)n1,"13 µM [rising, partial curve]",–
COc1ccc(OC)c(/C=N/OC(=O)Nc2ccc(Cl)cc2)c1,"12.6 µM [rising, partial curve]",–
COc1cccc(-n2c(=S)[nH]c3ccccc3c2=O)c1,"2.82 µM [rising, partial curve, poor fit]",–
CCCCCCCCCCn1ccc(=N)cc1,"11.2 µM [falling, partial curve, poor fit]",–
COC1=CC(=O)O[C@@H](/C=C/c2ccccc2)C1,"16.4 µM [rising, single point]",–
C=COCCn1c(C)c(C(=O)OCC)c2cc(O)ccc21,"31.6 µM [rising, single point]",–
CSc1ncc(CN2CCCC(C(=O)c3cccc(Cl)c3)C2)cn1 (centres undefined),"0.708 µM [falling, full curve, poor fit]",–
COc1ccc(-c2nn(CCC#N)cc2C(=O)NCc2ccccc2)cc1OC,"3.16 µM [rising, full curve, poor fit]",–
O=c1[nH]c(=O)n(Cc2ccc(F)cc2)c(O)c1/C=N/Nc1ccccc1,"1.12 µM [rising, full curve, poor fit]",–
CC1CN=C(NCc2ccccc2)S1 (centres undefined),"29.1 µM [rising, partial curve, poor fit]",–
CN1CCC(N(C)c2ncnc3ccc(Br)cc23)CC1,"6.51 µM [falling, partial curve]",–

# By substructure: the entries above with two or more sulfur atoms (four)
SMILES,AC50 [1],AC50 [2]
COC(=O)c1ccc(NC(=O)CSc2nc3ccc(N4C(=O)C5C6C=CC(C6)C5C4=O)cc3s2)cc1 (centres undefined),"14.6 µM [falling, partial curve, poor fit]","16.4 µM [rising, partial curve, poor fit]"
O=S(=O)(CCSc1ccc(C(F)(F)F)cn1)c1ccc(Cl)cc1,"11.2 µM [falling, partial curve, poor fit]",–
COc1ccc(/C=C2/SC(=S)N(c3ccc(S(=O)(=O)Nc4nccs4)cc3)C2=O)cc1,"11.2 µM [falling, single point]",–
O=C(C1CCCN(S(=O)(=O)c2cccc3nsnc23)C1)N1CCC2(CC1)OCCO2 (centres undefined),"0.206 µM [rising, full curve, poor fit]",–
